# Data: the supplement of paper PMC3334620
# The full ranking holds about 33,000 sequences; the median of “E-score (-0.5 to 0.5)” is about -0.0014, and the highest 2% start at about 0.25. The list shows a part of the results.
# Target: T1, Cad1 (UniProt P24813)
# T1 sequence: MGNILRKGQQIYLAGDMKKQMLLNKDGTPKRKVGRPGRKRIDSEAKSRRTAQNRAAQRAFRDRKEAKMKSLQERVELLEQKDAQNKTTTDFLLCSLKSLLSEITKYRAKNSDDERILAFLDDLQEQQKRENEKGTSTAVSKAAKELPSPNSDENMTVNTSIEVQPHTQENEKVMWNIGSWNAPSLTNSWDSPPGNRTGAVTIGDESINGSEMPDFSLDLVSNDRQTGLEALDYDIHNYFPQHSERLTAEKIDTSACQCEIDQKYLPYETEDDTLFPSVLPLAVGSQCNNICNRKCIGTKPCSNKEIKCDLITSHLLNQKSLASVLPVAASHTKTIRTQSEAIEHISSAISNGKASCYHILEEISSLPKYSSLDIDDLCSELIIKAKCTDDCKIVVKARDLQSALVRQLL
# Test: PBM E-score (8-mer binding enrichment) (E-score (-0.5 to 0.5)); higher = stronger / more preferred TF binding
# Conditions: protein concentration: 100 nM; construct: GST-full length
# Procedure, shortened: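 Bound GST-tagged yeast transcription factors, applied at about 100-200 nM to double-stranded universal all-10-mer Agilent arrays, were detected with fluorescent anti-GST. Scans were normalised with masliner. A modified Wilcoxon-Mann-Whitney statistic, the E-score, was assigned to each ungapped eight-base word pooled with its reverse complement by the Universal PBM Analysis Suite.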
row,Sequence,PBM E-score
1,GGTCGCAC,0.051
2,GGGTCCTA,-0.202
3,ACTTCCAT,0.141
4,CATTGACC,0.0957
5,GAGCTACC,-0.011
6,GCTGTGCC,-0.0355
7,CCAATAAG,-0.101
8,ACGCCTTA,-0.172
9,GTATCCGA,0.11
10,CCACGGAA,0.235
11,GAAGTCGC,0.022
12,TGCCCGAA,-0.0712
13,GAGAAGCC,-0.106
14,CGTGAACC,-0.0667
15,AGAGGATG,0.00349
16,AACACAGG,-0.0364
17,GGTATCGA,0.171
18,CTAATGCC,-0.0404
19,ACCTCACG,0.0697
20,GCCTCTTA,0.0813
21,GTAACAAA,0.15
22,CACTGACC,-0.111

# A second format for some results above.
row	Sequence	PBM E-score
4	CATTGACC	0.0957
5	GAGCTACC	-0.011
6	GCTGTGCC	-0.0355
7	CCAATAAG	-0.101
8	ACGCCTTA	-0.172

# Going on with the list.

row,Sequence,PBM E-score
1,CTCTCAAC,-0.189
2,AGTTCGAA,0.168
3,CTTCGGTA,-0.142
4,AGACAAAT,0.125
5,CTTCGCTA,0.0327
6,TCAGAGAA,-0.0244
7,CGATTACC,0.064
8,AGGCTAAG,-0.113
9,ACCGTATC,-0.0258
10,CATATAAG,0.00934
11,AGATTTGG,-0.13
12,CCGACTCG,-0.0729
13,TACATCAA,-0.00492
14,CACAACCA,0.14
15,AATTCTGC,0.142
16,GAGTGGGC,-0.294
17,AAGCGGCG,0.0379
18,CCATCAAC,0.0658
19,AACAGAGA,-0.0618
20,ATGGGGCC,-0.384
21,CTATGTTC,0.0922
22,CAATGAAG,-0.0666

row,Sequence,PBM E-score
1,AATAGTAT,0.137
2,ACACTAGC,0.0926
3,AACTTATT,0.142
4,AACGGTTA,-0.0521
5,GCCAGCGA,-0.149
6,AGACCACT,-0.0474
7,AATAAGTC,0.108
8,AAATACAA,0.0875
9,CGGGGGTC,-0.297
10,AACTGTAG,0.0438
11,AAGTATCC,0.0184
12,CGGACACG,0.0197
13,CGACGAGA,0.0652
14,CCGGCTCG,0.0853
15,CATGAAAA,0.14
16,GGGAACCC,-0.0657
17,CACTTCGC,0.00138
18,GCCTGTAC,0.12
19,CATCTGCA,0.047
20,GGATCCCC,-0.247
21,CTTGGCCC,-0.417
22,GTGCTACA,-0.169

row,Sequence,PBM E-score
1,GTTGCCCA,0.188
2,AGCTTGTG,0.0925
3,ACGTGGAA,0.1
4,CCTCTGGC,-0.0622
5,AGGGAGAC,-0.212
6,TTCGAAAA,0.163
7,AGGATGAG,-0.063
8,ATTTAGCA,0.128
9,TAGCAGAA,0.0503
10,ACCAAGAA,0.116
11,CGCGAATC,0.0895
12,ATACTCCC,-0.0818
13,AAGTAGTA,0.141
14,AACACTGA,0.234
15,CTATTGCC,-0.149
16,GCAGAGCC,-0.203
17,CGGCGTGC,-0.178
18,GGGCTAAC,-0.113
19,AACTCATC,0.0929
20,CCGAAACC,-0.11
21,ACTCCATG,-0.123
22,CACGCTAG,-0.0624

row,Sequence,PBM E-score
1,CCGTTCAA,0.0261
2,AACGGAAG,0.114
3,GTAATCCA,0.277
4,AGAATCAA,0.0466
5,CTATCCAC,-0.0192
6,AGCCCTAA,-0.0989
7,ACACACGA,-0.0386
8,CGACTATA,-0.0508
9,ATACTGCA,0.0912
10,CGCCACTC,-0.0665
11,CAGATCAG,0.0663
12,ACTGGATC,-0.0601
13,CGTTCCTA,0.00668
14,AAATGAAT,-0.0684
15,AGATAATA,-0.019
16,AAAGCGCC,-0.0664
17,GAGGTGCA,0.0843
18,AGAGAAAT,0.0896
19,AAACGTGG,-0.108
20,AAGGCTCT,-0.237
21,CACTCACC,-0.205
